The campaign covered roughly 360,000 compounds. About 10,000 (2.8%) were called active. The shares of active, inactive and inconclusive entries below differ from those in the screen. Calls come from the whole dose curve; as a rule, active = well fitted inhibition curve with a large enough effect; inconclusive = small, poorly fitted or top-dose-only effect; inactive = flat fitted curve, though single readings scatter. Potencies beside an inconclusive call are fits to weak or partial responses and may not hold up.
The compounds below were run against Serine/threonine-protein kinase PLK1 (Homo sapiens) (UniProt P53350) (assay: qHTS for Inhibitors of PLK1-PDB (polo-like kinase 1 - polo-box domain): Primary Screen). Settings: Plk1 PBD binding of FITC phosphopeptide, fluorescence polarization.
% is set by controls: 0 for no effect and ±100 for the full control effect; potency is the fitted concentration of half-maximal effect.
Note: nearly all actives have a fitted effect of over 65% in size.
Throughout, for max response, negative = inhibition: series mostly up to about 57 µM.

Amino acid sequences for entries named in this document (tags omitted).
UniProt P53350, whole entry, looked up: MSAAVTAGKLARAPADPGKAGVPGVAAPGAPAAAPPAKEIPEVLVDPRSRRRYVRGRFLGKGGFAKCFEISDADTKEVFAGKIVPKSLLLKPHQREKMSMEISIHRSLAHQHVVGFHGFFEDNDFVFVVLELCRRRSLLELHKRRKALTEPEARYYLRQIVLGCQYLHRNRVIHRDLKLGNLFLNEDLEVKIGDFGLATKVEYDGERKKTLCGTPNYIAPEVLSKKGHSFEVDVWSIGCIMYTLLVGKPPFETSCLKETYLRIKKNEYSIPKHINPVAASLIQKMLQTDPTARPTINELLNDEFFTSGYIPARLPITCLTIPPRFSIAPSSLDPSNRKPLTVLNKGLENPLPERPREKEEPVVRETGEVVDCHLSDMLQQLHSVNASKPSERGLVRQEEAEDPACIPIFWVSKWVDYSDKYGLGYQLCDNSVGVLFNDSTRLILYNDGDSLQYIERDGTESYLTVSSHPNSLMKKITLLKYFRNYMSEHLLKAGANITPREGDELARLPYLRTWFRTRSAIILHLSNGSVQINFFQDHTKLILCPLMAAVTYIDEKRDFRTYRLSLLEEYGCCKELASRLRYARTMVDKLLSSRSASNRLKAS

| Structure (SMILES) | max response, negative = inhibition | Potency |
| --- | --- | --- |
| O=S(=O)(/N=C/N1CCOCC1)c1ccc(Cl)cc1 | inactive: -4.72% |  |
| O=C(Nc1ccccc1)c1ccccc1NS(=O)(=O)c1ccc(Cl)s1 |  | inconclusive: 23.8 µM [inhibitor, single point] |
| CCOc1ccc(N=C/C=C/c2ccccc2)c(O)c1 |  | inconclusive: 26.7 µM [inhibitor, partial curve] |
| Cn1nnnc1SCC(=O)Nc1ccccn1 |  | inconclusive: 37.7 µM [inhibitor, single point] |
| NC(=S)N/N=C1\c2ccccc2-c2c(C(=O)O)cccc21 |  | inconclusive: 33.6 µM [inhibitor, partial curve, poor fit] |
| COc1cccc(C=Nc2ccc3c(c2)OCCO3)c1O |  | inconclusive: 23.8 µM [inhibitor, single point] |
| CCC(=O)Nc1ccc2c(c1)OC[C@@H](C)N(Cc1ccccc1F)C[C@@H](C)[C@@H](OC)CN(C)C2=O | inactive: -4.01% |  |
| O=C(NCC1CCCO1)c1ccc2c(c1)N(Cc1ccccc1)C(=O)CS2 (stereo unspecified) |  | active: 29.9 µM |
| Cc1cc(C)c(S(=O)(=O)N(CC(=O)NCc2cccnc2)C2CCCCC2)c(C)c1 |  | inconclusive: 26.7 µM [inhibitor, partial curve] |
| O=C(O)Cn1c(-c2ccccc2)nc2ccccc21 |  | active: 26.7 µM |
| CCN(CC)CCN1C(=O)C(O)=C(C(C)=O)C1c1ccccc1[N+](=O)[O-] (stereo unspecified) |  | inconclusive: 26.7 µM [inhibitor, single point] |
| CCC1=NN2C(=N)/C(=C\c3cccn3-c3ccc(Br)cc3)C(=O)N=C2S1 |  | inconclusive: 26.7 µM [inhibitor, single point] |
| CCOc1cc(S(=O)(=O)NCc2ccccc2)ccc1F |  | inconclusive: 29.9 µM [inhibitor, single point] |
| O=C(NNc1ccc(C2CCCCC2)cc1)C(O)(c1ccccc1)c1cccs1 (stereo unspecified) | inactive: -0.102% |  |
| Cc1ccc(S(=O)(=O)N2CCN(C(=O)C(F)(F)F)C2c2ccc(N(C)C)cc2)cc1 (stereo unspecified) | inactive: -5.22% |  |
| CCCC(=O)Nc1ccc(C2C(=O)c3ccccc3C2=O)cc1 | inactive: 4.96% |  |
| O=C(Nc1ccccc1)Nc1ccc(O)c2ccccc12 |  | inconclusive: 29.9 µM [inhibitor, partial curve] |
| CCCCN(Cc1ccc(C(=O)N[C@H](C(=O)O)C(C)C)cc1)C(=O)C(c1ccccc1)c1ccccc1 |  | inconclusive: 37.7 µM [inhibitor, single point] |
| COc1cc(C2Nc3ccc4ccccc4c3C3=C2C(=O)CC(C)(C)C3)ccc1OC(C)C(=O)O (stereo unspecified) |  | inconclusive: 67 µM [inhibitor, partial curve] |
| Cc1ccc(/C=C(\CCC(=O)O)c2nc3ccccc3s2)cc1[N+](=O)[O-] | inconclusive: -36.4% [inhibitor] |  |
| CCn1nnc(NC(=O)c2cccnc2)n1 |  | inconclusive: 26.7 µM [inhibitor, partial curve] |
| Cc1nc2[nH]onc2c2nccc(=O)c12 | inactive: -9.79% |  |
| NC(=O)c1ccc(N2CCN(c3ncc(C(F)(F)F)cc3Cl)CC2)cc1 |  | inconclusive: 29.9 µM [inhibitor, single point] |
| COc1cc(/C=C2/C(=O)ON=C2c2ccccc2)ccc1O |  | inconclusive: 2.99 µM [inhibitor, partial curve] |

Sorted by number of heavy atoms (ascending): part of the list above

| Structure (SMILES) | max response, negative = inhibition | Potency |
| --- | --- | --- |
| Cc1nc2[nH]onc2c2nccc(=O)c12 | inactive: -9.79% |  |
| Cn1nnnc1SCC(=O)Nc1ccccn1 |  | inconclusive: 37.7 µM [inhibitor, single point] |
| O=C(Nc1ccccc1)Nc1ccc(O)c2ccccc12 |  | inconclusive: 29.9 µM [inhibitor, partial curve] |
| COc1cc(/C=C2/C(=O)ON=C2c2ccccc2)ccc1O |  | inconclusive: 2.99 µM [inhibitor, partial curve] |
| O=C(NCC1CCCO1)c1ccc2c(c1)N(Cc1ccccc1)C(=O)CS2 (stereo unspecified) |  | active: 29.9 µM |

(next part)

| Structure (SMILES) | max response, negative = inhibition | Potency |
| --- | --- | --- |
| O=c1cc(-c2ccccc2)[nH]n1-c1nc2ccccc2s1 |  | active: 21.2 µM |
| CS(=O)(=O)c1ccc(Cl)c(NC(=O)Cc2ccccc2F)c1 |  | active: 26.7 µM |
| CSc1ccccc1NC(=O)COC(=O)Cc1ccsc1 | inactive: -6.12% |  |
| Cc1ccccc1-c1cc(C(=O)Nc2sc(C(=O)OC(C)C)c(C)c2C#N)c2ccccc2n1 |  | active: 10.6 µM |
| COc1ccc(/C=N/NS(=O)(=O)c2ccccc2)cc1OC |  | inconclusive: 23.8 µM [inhibitor, partial curve] |
| CCCCCOc1ccc(NC(=O)CSc2cccc3cccnc23)cc1 |  | inconclusive: 13.4 µM [inhibitor, partial curve] |
| COc1ccc(NS(=O)(=O)c2c(C(=O)N3CCCCCC3)c(C)n(C)c2C)cc1OC |  | inconclusive: 29.9 µM [inhibitor, partial curve] |
| CC(=O)N1c2ccc(S(=O)(=O)N3CCCCC3)cc2CC1C(=O)Nc1ccc(C)cc1 (stereo unspecified) |  | inconclusive: 29.9 µM [inhibitor, single point] |
| O=[N+]([O-])c1ccc(-c2c[nH]c(=S)[nH]2)cc1 |  | active: 7.52 µM |
| CC(C(=O)O)N1CCCCC1 (stereo unspecified) | inactive: -27.9% |  |
| CCCc1[nH]nc2c1C(c1cn[nH]c1-c1ccc(F)cc1)C(C#N)=C(N)O2 (stereo unspecified) |  | inconclusive: 29.9 µM [inhibitor, partial curve] |
| Cc1[nH]n(C(N)=S)c(=O)c1C(c1ccccc1)C(C#N)C#N (stereo unspecified) |  | inconclusive: 29.9 µM [inhibitor, single point] |
| CC(=O)NCCc1nc2ccccc2n1CCOc1ccccc1C |  | inconclusive: 21.2 µM [inhibitor, partial curve] |
| Oc1ccc2ccccc2c1C=NC1CCCCC1 |  | inconclusive: 18.9 µM [inhibitor, partial curve] |
| Cc1sc2ncnc(Sc3nnnn3-c3ccccc3)c2c1C |  | inconclusive: 11.9 µM [inhibitor, partial curve] |
| Cc1ccc(NS(=O)(=O)c2ccc(C(=O)NCc3ccc(S(N)(=O)=O)cc3)cc2)cc1 |  | inconclusive: 26.7 µM [inhibitor, single point] |
| CCOC(=O)CSc1nnc(CNc2cccc(Cl)c2)n1-c1ccccc1 | inactive: -4.27% |  |
| O=C(COC(=O)c1ccc(S(=O)(=O)NCc2ccco2)cc1)Nc1ccc(Cl)cn1 |  | inconclusive: 29.9 µM [inhibitor, partial curve, poor fit] |
| CC(C)C(=O)N1CCN(c2ccccc2NC(=S)NC(=O)/C=C/c2ccco2)CC1 | inactive: -16.5% |  |
| O=c1[nH]c(Sc2ccc([N+](=O)[O-])cc2[N+](=O)[O-])nc2ccccc12 |  | inconclusive: 23.8 µM [inhibitor, partial curve] |
| COc1ccc(Br)cc1C1CC(=O)N2CN(Cc3ccccc3)CSC2=C1C#N (stereo unspecified) |  | inconclusive: 26.7 µM [inhibitor, partial curve] |
| CCN(Cc1ccncc1)C(=O)c1ccccc1NS(=O)(=O)c1ccc(Br)cc1 | inactive: -7.42% |  |
| O=C(c1ccccc1)c1c[nH]c(C(=O)NNc2ccccc2)c1 |  | inconclusive: 16.8 µM [inhibitor, partial curve] |
| CC(C)CNC(=O)C(=O)NCCCN1CCOCC1 |  | active: 21.2 µM |

| Structure (SMILES) | max response, negative = inhibition | Potency |
| --- | --- | --- |
| CCN(CC)c1ccc(CN2CCC(C(=O)NCc3ccc(C)cc3)CC2)cc1 | inactive: -2.02% |  |
| NC(=O)c1cccnc1Sc1ccc(Cl)cc1 |  | inconclusive: 21.2 µM [inhibitor, single point] |
| C[n+]1c(-c2ccccc2)cc2c(=Cc3ccccc3)c3ccccc3n21 |  | active: 3.77 µM |
| Cc1cccnc1C(NC(=O)C1CCN(Cc2ccc3ccccc3n2)CC1)c1ccc(Cl)cc1 (stereo unspecified) | inactive: -12.2% |  |
| CCOc1ccc(CC(=O)Nc2sc(Cc3ccccc3)cc2C(N)=O)cc1OCC |  | active: 16.8 µM |
| FC(F)(F)c1cccc(OCc2nnc3n2CCC3)c1 |  | inconclusive: 37.7 µM [inhibitor, single point] |
| CCSc1nc2sc3c(c2c(=O)n1-c1ccc(C)cc1)CCN(C)C3 |  | inconclusive: 29.9 µM [inhibitor, single point] |
| Cn1cccc1Cc1nnc(SCC(=O)Nc2ccc(F)cc2)n1-c1ccc(F)cc1 |  | active: 23.8 µM |
| Cc1ccc2c(NC(=S)NC(=O)c3ccccc3)cccc2n1 |  | inconclusive: 18.9 µM [inhibitor, partial curve] |
| COc1ccc(Nc2nnc(-c3ccncc3)s2)cc1Cl | inactive: -28% |  |
| O=c1ccc2ccccc2c2ccccc12 |  | inconclusive: 21.2 µM [inhibitor, partial curve] |
| COc1ccccc1N1C(=O)[C@@H]2[C@H](C1=O)[C@H](C(=O)c1ccc(OC(C)=O)cc1)N1N=CC=C[C@@H]21 |  | inconclusive: 67 µM [inhibitor, partial curve] |
| O=S(=O)(Nc1ccc(O)c2ccccc12)c1cccs1 |  | active: 11.9 µM |
| CCc1cc[n+](C2=C([O-])c3ccccc3C(=O)/C2=N\S(=O)(=O)c2cccs2)cc1 |  | inconclusive: 21.2 µM [inhibitor, partial curve] |
| S=P(c1ccc(N2CCOCC2)cc1N1CCOCC1)(N1CCOCC1)N1CCOCC1 |  | active: 21.2 µM |
| COc1ccc(C2=NS(=O)(=O)N(C)C(C(=O)NC(C)c3ccccc3)=C2)cc1OC (stereo unspecified) | inactive: -6.79% |  |
| COc1cc2c(cc1OC)C(c1cccc(C)c1)CC(=O)N2 (stereo unspecified) |  | inconclusive: 6.7 µM [inhibitor, single point] |
| COc1cccc(NC(=S)N2CCn3cccc3C2c2cccnc2)c1 (stereo unspecified) |  | inconclusive: 26.7 µM [inhibitor, partial curve, poor fit] |
| CCOc1cccc(=O)c2c(C)n(CC(=O)c3ccccc3)c(C)c12 | inactive: -9.95% |  |
| O=S(=O)(NC(=S)c1ccccc1)c1ccc(F)cc1 |  | inconclusive: 21.2 µM [inhibitor, single point] |
| Cn1ccnc1SCC(=O)c1cc2ccccc2o1 |  | inconclusive: 21.2 µM [inhibitor, partial curve] |
| c1ccc2c(c1)CC1(CCCC1)N=C2N1CCOCC1 |  | inconclusive: 29.9 µM [inhibitor, partial curve] |
| CCn1nc([N+](=O)[O-])c(C(C#N)c2nc3ccccc3n2C)c(Cl)c1=O (stereo unspecified) |  | inconclusive: 18.9 µM [inhibitor, single point] |
